By UniProt entry, the sequences of proteins in these tests, tags left out. Residues count along the entry.
UniProt Q9UKK3, 1-100: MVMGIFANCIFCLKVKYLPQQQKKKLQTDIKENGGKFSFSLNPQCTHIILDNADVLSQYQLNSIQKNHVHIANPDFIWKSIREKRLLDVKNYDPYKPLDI
UniProt Q9UKK3, 1-573: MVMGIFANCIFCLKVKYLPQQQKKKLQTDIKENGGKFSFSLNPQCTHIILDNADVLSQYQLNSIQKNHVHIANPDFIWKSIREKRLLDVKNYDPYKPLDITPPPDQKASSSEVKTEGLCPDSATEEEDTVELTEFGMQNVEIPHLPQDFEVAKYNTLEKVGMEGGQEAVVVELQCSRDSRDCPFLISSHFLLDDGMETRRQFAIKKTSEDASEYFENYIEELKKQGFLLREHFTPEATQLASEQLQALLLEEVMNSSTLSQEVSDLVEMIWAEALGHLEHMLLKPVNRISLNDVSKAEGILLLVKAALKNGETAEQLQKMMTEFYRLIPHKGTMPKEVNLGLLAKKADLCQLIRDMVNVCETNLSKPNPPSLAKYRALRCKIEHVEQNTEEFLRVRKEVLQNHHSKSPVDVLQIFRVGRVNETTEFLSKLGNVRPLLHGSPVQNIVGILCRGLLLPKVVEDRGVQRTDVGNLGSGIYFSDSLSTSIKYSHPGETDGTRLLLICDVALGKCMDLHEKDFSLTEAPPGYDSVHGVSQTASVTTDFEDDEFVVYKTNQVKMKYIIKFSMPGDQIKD

According to PMC12212138:

Experiments:
PARP4 BRCT WT (human) [1] = target: PARP4 BRCT WT (human) (UniProt Q9UKK3); test: EMSA; conditions: 20 nM probe; EMSA: 50 mM Tris pH 7.5, 50 mM NaCl, 4% Ficoll PM400, 0.05% NP40, 2 mM DTT, 0-18 uM protein, room temp 30 min, gel at 4 C; recombinant protein; residues 1-100; protein details: N-terminal His-SUMO removed by TEV; label: 5'-6-FAM; folded or branched DNA
PARP4 BRCT WT (human) [2] = target: PARP4 BRCT WT (human) (UniProt Q9UKK3); test: FP; conditions: 3 nM probe; FP: 50 mM Tris pH 7.5, 50 mM NaCl, 1 mM MgCl2, 0.05% NP40, 2 mM DTT, 5% glycerol, 25 ug/ml BSA, room temp 30 min; recombinant protein; residues 1-100; protein details: N-terminal His-SUMO removed by TEV; label: 5'-6-FAM; folded or branched DNA
[3] = target: PARP4 BRCT-WGR-CAT WT (human) (UniProt Q9UKK3); test: EMSA; conditions: 20 nM probe; EMSA: 50 mM Tris pH 7.5, 50 mM NaCl, 4% Ficoll PM400, 0.05% NP40, 2 mM DTT, 0-18 uM protein, room temp 30 min, gel at 4 C; recombinant protein; residues 1-573; protein details: N-terminal His-SUMO removed by TEV; label: 5'-6-FAM on strand 1

Sequence | Kd (PARP4 BRCT WT (human) [1]) [µM] | Kd (PARP4 BRCT WT (human) [2]) [µM] | Kd [3] [µM]
GGCTGGCTTTAGCTCAGCGGTTACTTCGCGTGTCATCAAACCACCTCTCTGGGTTGTTCGAGACCCGCGGGCGCTCTCCAGCCCTCTT [vtDNA1-3] | 0.5 | 10 | –
GGCUGGCUUUAGCUCAGCGG / CCGCGGGCGCUCUCCAGCCCUCUU [Probe 1] | – | – | 11

Construct, isoform or probe ends are uncertain for at least one entry.
